{
  "sequences": {"note": "The chains behind the UniProt entries cited, without tags or fusion partners. Where a name states a change or a piece, a line headed by the entry shows the natural chain unless it says otherwise.", "UniProt P11509": "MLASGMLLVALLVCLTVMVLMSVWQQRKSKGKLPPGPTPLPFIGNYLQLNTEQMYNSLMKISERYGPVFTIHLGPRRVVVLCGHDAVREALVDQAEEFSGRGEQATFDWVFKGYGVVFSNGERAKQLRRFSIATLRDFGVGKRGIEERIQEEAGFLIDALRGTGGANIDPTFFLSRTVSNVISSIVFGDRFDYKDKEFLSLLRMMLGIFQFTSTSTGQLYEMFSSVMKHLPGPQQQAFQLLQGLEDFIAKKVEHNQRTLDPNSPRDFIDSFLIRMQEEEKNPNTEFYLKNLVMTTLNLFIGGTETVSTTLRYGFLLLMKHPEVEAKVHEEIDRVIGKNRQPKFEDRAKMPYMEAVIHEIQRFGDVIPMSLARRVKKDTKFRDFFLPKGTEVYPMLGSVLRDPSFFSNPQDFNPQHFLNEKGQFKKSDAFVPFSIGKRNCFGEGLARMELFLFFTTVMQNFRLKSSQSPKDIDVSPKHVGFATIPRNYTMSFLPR", "UniProt P31652, whole entry, looked up": "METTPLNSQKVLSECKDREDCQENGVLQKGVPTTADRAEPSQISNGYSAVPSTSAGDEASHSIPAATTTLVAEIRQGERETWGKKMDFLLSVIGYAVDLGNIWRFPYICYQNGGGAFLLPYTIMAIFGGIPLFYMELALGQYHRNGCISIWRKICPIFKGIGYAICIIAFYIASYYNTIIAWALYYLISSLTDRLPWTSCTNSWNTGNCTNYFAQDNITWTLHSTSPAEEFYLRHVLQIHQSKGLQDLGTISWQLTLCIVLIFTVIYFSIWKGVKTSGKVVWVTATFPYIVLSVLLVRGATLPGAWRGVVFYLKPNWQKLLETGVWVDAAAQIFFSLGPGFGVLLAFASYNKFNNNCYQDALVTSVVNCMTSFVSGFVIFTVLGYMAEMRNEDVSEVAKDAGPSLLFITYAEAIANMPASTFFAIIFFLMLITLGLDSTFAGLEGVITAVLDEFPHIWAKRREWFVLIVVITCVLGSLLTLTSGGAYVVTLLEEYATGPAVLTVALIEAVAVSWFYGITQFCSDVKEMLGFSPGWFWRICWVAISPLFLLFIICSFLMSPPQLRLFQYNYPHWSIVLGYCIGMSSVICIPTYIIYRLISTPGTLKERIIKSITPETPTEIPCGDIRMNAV", "UniProt Q05941, whole entry, looked up": "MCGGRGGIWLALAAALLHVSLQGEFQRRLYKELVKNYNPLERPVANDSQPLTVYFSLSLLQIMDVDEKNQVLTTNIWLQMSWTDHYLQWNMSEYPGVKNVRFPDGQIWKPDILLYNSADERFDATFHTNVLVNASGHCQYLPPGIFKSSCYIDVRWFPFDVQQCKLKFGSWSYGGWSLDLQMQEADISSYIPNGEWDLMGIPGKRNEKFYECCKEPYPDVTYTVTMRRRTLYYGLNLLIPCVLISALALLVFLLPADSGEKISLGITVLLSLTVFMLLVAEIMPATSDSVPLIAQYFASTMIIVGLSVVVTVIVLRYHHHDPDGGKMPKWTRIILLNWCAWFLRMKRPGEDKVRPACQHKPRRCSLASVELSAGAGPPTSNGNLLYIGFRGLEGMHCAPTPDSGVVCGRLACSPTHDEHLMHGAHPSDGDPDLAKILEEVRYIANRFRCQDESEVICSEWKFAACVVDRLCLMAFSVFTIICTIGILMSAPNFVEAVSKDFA", "UniProt O75582, whole entry, looked up": "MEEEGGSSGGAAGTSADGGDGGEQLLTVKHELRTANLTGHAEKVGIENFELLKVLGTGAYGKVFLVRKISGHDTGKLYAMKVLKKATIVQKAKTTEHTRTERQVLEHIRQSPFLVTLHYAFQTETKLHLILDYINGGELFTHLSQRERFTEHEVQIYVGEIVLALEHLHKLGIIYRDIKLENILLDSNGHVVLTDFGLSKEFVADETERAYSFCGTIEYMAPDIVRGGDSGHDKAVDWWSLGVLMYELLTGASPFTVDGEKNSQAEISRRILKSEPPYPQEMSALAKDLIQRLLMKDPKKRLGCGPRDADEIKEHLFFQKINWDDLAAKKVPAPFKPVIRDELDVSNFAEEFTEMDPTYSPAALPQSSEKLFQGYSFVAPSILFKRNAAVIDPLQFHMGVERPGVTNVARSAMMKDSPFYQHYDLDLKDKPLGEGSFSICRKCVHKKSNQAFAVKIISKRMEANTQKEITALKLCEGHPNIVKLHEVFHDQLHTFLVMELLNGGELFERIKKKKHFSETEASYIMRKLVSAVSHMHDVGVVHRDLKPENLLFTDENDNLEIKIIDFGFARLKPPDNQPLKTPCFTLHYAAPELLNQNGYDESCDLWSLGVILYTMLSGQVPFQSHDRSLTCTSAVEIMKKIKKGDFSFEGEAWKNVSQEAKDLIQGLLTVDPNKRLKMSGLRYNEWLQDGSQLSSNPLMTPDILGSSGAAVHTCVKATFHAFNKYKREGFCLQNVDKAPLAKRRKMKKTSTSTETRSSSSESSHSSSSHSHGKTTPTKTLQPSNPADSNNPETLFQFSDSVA", "UniProt Q8IXJ6": "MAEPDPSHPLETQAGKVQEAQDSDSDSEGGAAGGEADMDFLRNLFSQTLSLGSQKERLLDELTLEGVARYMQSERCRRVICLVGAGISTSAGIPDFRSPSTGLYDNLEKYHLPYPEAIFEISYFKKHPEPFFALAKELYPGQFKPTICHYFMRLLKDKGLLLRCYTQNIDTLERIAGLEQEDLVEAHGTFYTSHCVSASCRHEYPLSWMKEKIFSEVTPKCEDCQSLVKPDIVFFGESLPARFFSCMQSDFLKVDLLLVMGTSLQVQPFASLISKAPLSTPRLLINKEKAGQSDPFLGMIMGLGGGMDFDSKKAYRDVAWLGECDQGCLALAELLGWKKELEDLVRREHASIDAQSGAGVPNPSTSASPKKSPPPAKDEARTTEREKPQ", "UniProt Q9NTG7": "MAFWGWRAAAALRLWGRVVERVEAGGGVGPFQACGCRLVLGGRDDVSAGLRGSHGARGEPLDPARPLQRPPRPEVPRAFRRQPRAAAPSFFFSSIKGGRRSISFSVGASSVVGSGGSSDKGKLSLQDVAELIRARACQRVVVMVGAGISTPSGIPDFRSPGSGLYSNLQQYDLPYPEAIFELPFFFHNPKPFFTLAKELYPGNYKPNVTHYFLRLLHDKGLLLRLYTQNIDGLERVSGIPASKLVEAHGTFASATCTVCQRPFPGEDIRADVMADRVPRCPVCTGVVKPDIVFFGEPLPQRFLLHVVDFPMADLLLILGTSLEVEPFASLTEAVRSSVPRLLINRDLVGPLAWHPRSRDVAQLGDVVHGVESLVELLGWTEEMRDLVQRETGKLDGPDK", "UniProt P08913, whole entry, looked up": "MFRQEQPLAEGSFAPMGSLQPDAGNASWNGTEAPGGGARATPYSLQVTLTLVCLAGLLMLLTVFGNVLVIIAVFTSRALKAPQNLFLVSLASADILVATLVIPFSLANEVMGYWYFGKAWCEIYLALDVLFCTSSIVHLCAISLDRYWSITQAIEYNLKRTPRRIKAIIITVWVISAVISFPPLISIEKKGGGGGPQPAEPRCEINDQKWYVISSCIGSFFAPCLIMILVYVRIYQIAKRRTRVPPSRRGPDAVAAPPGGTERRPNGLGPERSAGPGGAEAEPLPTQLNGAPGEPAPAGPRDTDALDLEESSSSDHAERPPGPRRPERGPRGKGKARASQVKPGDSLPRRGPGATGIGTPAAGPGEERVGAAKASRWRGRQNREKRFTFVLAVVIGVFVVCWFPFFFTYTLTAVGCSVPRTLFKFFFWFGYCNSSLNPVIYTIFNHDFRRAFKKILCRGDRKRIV", "UniProt P07727": "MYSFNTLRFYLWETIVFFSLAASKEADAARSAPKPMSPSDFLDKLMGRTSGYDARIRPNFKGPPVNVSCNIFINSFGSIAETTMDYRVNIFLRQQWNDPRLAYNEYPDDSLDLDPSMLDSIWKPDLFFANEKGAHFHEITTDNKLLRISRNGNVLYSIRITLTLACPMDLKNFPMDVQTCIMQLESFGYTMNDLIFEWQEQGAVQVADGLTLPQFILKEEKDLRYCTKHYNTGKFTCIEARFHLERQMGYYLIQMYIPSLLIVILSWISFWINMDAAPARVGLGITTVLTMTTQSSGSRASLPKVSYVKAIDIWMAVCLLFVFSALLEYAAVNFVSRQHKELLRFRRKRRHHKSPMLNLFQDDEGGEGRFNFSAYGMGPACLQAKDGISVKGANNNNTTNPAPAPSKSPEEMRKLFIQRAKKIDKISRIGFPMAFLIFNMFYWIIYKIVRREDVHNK", "UniProt P17706": "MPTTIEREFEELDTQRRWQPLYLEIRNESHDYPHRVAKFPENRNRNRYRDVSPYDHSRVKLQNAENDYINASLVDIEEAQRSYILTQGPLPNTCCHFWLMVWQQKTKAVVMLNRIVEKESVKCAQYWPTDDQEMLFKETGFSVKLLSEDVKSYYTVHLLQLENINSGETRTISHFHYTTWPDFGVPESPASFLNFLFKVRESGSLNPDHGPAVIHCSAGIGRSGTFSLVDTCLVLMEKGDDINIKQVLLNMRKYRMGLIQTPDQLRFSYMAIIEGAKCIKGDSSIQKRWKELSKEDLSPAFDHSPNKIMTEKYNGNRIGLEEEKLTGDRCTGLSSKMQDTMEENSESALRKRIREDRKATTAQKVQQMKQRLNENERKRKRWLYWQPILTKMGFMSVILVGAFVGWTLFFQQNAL", "UniProt P35968, whole entry, looked up": "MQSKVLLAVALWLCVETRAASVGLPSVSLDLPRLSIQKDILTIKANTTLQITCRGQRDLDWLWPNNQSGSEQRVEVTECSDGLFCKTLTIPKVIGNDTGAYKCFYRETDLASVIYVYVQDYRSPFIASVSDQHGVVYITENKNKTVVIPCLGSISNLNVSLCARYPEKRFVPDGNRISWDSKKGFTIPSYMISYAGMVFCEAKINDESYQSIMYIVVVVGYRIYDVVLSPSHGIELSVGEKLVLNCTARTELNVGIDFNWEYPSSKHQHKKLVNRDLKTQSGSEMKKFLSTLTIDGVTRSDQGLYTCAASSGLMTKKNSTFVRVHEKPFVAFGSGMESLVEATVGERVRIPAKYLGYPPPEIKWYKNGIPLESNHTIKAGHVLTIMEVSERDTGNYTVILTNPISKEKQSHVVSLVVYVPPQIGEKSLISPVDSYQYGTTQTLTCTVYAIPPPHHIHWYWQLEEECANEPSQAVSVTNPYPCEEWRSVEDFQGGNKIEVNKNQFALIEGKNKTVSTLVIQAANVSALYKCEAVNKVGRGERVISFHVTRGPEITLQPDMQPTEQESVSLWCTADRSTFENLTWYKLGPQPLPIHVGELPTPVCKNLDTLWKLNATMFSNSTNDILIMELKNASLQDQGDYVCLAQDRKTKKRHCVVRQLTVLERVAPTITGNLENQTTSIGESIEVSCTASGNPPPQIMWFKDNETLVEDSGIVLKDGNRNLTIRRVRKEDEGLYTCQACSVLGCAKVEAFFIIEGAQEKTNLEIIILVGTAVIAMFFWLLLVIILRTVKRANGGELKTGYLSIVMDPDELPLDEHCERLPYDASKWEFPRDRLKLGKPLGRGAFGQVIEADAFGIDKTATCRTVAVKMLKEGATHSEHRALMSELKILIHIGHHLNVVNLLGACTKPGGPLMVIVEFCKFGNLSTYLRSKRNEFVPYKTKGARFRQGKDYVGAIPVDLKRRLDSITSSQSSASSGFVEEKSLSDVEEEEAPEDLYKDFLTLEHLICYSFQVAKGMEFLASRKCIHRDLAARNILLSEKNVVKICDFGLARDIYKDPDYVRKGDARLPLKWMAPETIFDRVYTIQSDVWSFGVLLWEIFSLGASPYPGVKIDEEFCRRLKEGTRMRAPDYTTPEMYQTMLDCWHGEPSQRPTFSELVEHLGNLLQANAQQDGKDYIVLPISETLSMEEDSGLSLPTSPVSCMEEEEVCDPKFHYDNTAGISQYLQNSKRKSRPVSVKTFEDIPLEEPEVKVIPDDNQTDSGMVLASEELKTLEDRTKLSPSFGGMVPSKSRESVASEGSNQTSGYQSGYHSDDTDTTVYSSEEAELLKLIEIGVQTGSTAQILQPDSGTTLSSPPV", "UniProt P35353": "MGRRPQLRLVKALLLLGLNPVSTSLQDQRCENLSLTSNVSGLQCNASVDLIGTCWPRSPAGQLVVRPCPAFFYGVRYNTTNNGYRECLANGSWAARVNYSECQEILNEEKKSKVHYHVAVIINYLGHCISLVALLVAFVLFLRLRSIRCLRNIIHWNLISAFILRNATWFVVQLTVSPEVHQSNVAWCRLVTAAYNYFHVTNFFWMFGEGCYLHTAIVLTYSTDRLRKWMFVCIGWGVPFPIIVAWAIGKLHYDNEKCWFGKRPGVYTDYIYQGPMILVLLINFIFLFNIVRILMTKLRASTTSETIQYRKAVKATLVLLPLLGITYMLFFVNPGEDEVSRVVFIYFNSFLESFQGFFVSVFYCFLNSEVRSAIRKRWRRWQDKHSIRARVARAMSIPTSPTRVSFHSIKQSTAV"},
  "source": "PubChem BioAssay (EPA / NIEHS)",
  "key": {"[1]": {"target": "chimpanzee Androgen Receptor (AR), AR (gene 747460) (UniProt O97775)", "assay": "NVS_NR_cAR: NovaScreen (NVS) Nuclear Receptor Binding Assay for chimpanzee Androgen Receptor (AR) (AID 2283346)", "outline": "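Cell-free competition binding with insect-cell (Sf9/Sf21) extracted chimpanzee AR; scintillation signal from lysate at 72 h. Screened in duplicate at 25 uM, then concentration-response for actives; fitting relative to DMSO.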"}, "[2]": {"target": "human CYP2A6, CYP2A6 (gene 1548) (UniProt P11509)", "assay": "NVS_ADME_hCYP2A6: NovaScreen (NVS) CYP450-related Enzyme Activity (ADME) Assay for human CYP2A6 (AID 2283099)", "outline": "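Loss of fluorescence signal relative to acetonitrile vehicle reported CYP2A6 inhibition in a cell-free system using insect-cell-derived enzyme. Readings were taken at 0.5 h; top concentration in follow-up dose series was 20 uM.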"}, "[3]": {"assay": "CCTE_Deisenroth_AIME_96WELL_CTox_Active: Cytotoxicity Assessment (CTOX) in CCTE's 96-well Estrogen Receptor Transactivation Assay with AIME metabolic competence (metabolism positive), Deisenroth Lab (AID 2284028)", "outline": "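Chemicals (0.002–200 uM) were first incubated 2 h with alginate-immobilized phenobarbital/beta-naphthoflavone-induced male rat liver S9; conditioned medium then went onto VM7Luc4E2 cells for 24 h, with viability read by protease-substrate fluorescence, fitted bidirectionally.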"}, "[4]": {"target": "Androgen Receptor/SRC-1 Co-activator, AR (gene 367) (UniProt P10275)", "assay": "OT_AR_ARSRC1_0960: Odyssey Thera (OT) 16-hour HEK293T Protein-Complementation Assay for Androgen Receptor/SRC-1 Co-activator (AID 2283353);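 note: actives raise the signal above DMSO so potency reflects increased AR and SRC-1 complex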", "outline": "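HEK293T cells stably expressing AR and SRC-1 fused to split Venus YFP fragments via (Gly4Ser)2 linkers were dosed for 16 h. Nuclear/cytoplasmic fluorescence ratio at 488 nm, ≥400 cells per image, fitted for gain of signal versus DMSO.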"}, "AR (gene 367)": {"target": "AR (gene 367) (UniProt P10275)", "assay": "ACEA_AR_antagonist_80hr: ACEA Biosciences xCELLigence Real-Time Cell Analysis on Androgen Receptor Antagonism for Proliferation (AID 2283787);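 note: 22Rv1 human prostate cancer cells with growth followed by electrical impedance; hits lower the impedance growth signal relative to DMSO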", "outline": "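Growth-kinetic antagonist readout in 22Rv1 cells, taken 80 h after continuous compound exposure. Activity fitted as signal loss relative to DMSO negative control.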"}, "[5]": {"target": "rat Serotonin Transporter (SERT), Slc6a4 (gene 25553) (UniProt P31652)", "assay": "NVS_TR_rSERT: NovaScreen (NVS) Transporter Assay for rat Serotonin Transporter (SERT) (AID 2283375)", "outline": "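Using rat forebrain membrane SERT, test chemicals compete with a radioligand for 1 hour, and bound counts are taken by filter-based scintillation. Screening starts at 25 uM in duplicate, followed by concentration series for actives.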"}, "[6]": {"assay": "Tanguay_ZF_120hpf_PFIN_legacy: (Legacy) Oregon State University Tanguay Lab 120 Hour Post-fertilization zebrafish Assay for Pectoral Fin Malformation (AID 2283648);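 note: each larva judged yes or no for fin defect by brightfield with dead larvae skipped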", "outline": "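5D WT zebrafish; pronase dechorionation 4 hpf; 1 embryo/well at 6 hpf; static exposure to 120 hpf, 28C, sealed, foil-covered; final DMSO 0.64% v/v; 5 uM trimethyltin chloride positive control; fin defect scored yes/no.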"}, "[7]": {"target": "rat Neonicotinoid receptor (NNR), Chrna7 (gene 25302) (UniProt Q05941)", "assay": "NVS_LGIC_rNNR_BungSens: NovaScreen (NVS) Ligand-Gated Ion Channel Assay for rat Neonicotinoid receptor (NNR) (AID 2283315)", "outline": "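Radioligand displacement binding on rat cortical membranes, 2.5 h incubation, filtration and scintillation counting. Loss of specific binding fitted relative to DMSO.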"}, "[8]": {"target": "human Mitogen- and Stress-activated Protein Kinase-1 (Msk1), RPS6KA5 (gene 9252) (UniProt O75582)", "assay": "NVS_ENZ_hMsk1: NovaScreen (NVS) Enzymatic Assay for human Mitogen- and Stress-activated Protein Kinase-1 (Msk1) (AID 2283187)", "outline": "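Recombinant kinase with fluorescent substrate; product separated by electrophoretic mobility shift, read 1 h after dosing. Screened in duplicate at 25 uM; hits (e.g. ≥30% inhibition) tested in concentration–response up to 50 uM. DMSO baseline.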"}, "[9]": {"target": "human Sirtuin 2 (SIRT2), SIRT2 (gene 22933) (UniProt Q8IXJ6)", "assay": "NVS_ENZ_hSIRT2: NovaScreen (NVS) Enzymatic Assay for human Sirtuin 2 (SIRT2) (AID 2283217)", "outline": "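Cell-free recombinant human SIRT2, fluorescent substrate with product separated by electrophoretic mobility shift, 1 hr. Screened in duplicate at 25 uM; hits rerun singly in concentration-response up to 50 uM, relative to DMSO.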"}, "[10]": {"target": "human Sirtuin 3 (SIRT3), SIRT3 (gene 23410) (UniProt Q9NTG7)", "assay": "NVS_ENZ_hSIRT3: NovaScreen (NVS) Enzymatic Assay for human Sirtuin 3 (SIRT3) (AID 2283222)", "outline": "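Cell-free enzyme assay with recombinant protein and fluorescent substrate, product separated by electrophoretic mobility shift; read 1 hour after dosing. Screened in duplicate at 25 uM, then singleton concentration-response up to 50 uM; loss of signal versus DMSO.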"}, "[11]": {"assay": "CCTE_Shafer_MEA_dev_active_electrodes_number: CCTE's Neural Network Formation Assay for Number of Active Electrodes, Shafer Lab (AID 2284040);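 note: potency for loss of active electrodes versus DMSO so lower counts are hits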", "outline": "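Rat cortical primary cultures, 1.5 x 10^5 cells/well, PEI-coated MEA, laminin drop. Continuous exposure DIV 0–12; full media/compound change DIV 5, 9. Readout: electrodes with mean firing ≥5 spikes/min; AUC across days; loss vs DMSO.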"}, "[12]": {"target": "human Adrenergic, Alpha 2A Receptor (Adra2A), ADRA2A (gene 150) (UniProt P08913)", "assay": "NVS_GPCR_hAdra2A: NovaScreen (NVS) G Protein-Coupled Receptor Assay for human Adrenergic, Alpha 2A Receptor (Adra2A) (AID 2283257)", "outline": "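Radioligand filter-binding was run on HT29-derived membranes, cell-free, read by scintillation counting 1 h after dosing. Primary screening was in duplicate at 25 uM, with concentration series in follow-up. Loss of signal versus DMSO indicates displacement.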"}, "[13]": {"target": "rat Glycine Receptor, Strychnine-sensitive (GlyRStrySens), Glra1 (gene 25674) (UniProt P07727)", "assay": "NVS_LGIC_rGlyRStrySens: NovaScreen (NVS) Ligand-Gated Ion Channel Assay for rat Glycine Receptor, Strychnine-sensitive (GlyRStrySens) (AID 2283341)", "outline": "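Radioligand displacement on rat spinal cord membranes, 1 hr, filter scintillation read-out. Single-concentration duplicate screen at 25 uM; chemicals meeting threshold (e.g., 30% inhibition) rerun in concentration-response up to 50 uM. Loss of binding fitted versus DMSO.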"}, "[14]": {"test_system": "Sodium/Iodide Symporter (NIS), SLC5A5 (gene 6528)", "assay": "CPHEA_Stoker_NIS_Inhibition_RAIU: CPHEA's Radioactive Iodide Uptake (RAIU) Assay for Sodium/Iodide Symporter (NIS) Inhibition, Stoker and Laws Labs (AID 2283841)", "outline": "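Iodide uptake read as CPM of intracellular 125I (final 329 pM) after 2 h room-temperature exposure in HEPES-buffered HBSS, pH 7.4. Human NIS-expressing HEK293T cells; six concentrations 0.001–100 uM, 0.5% DMSO, normalised to DMSO wells.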"}, "[15]": {"target": "human Protein Tyrosine Phosphatase Non-receptor Type 2 (PTPN2), PTPN2 (gene 5771) (UniProt P17706)", "assay": "NVS_ENZ_hPTPN2: NovaScreen (NVS) Enzymatic Assay for human Protein Tyrosine Phosphatase Non-receptor Type 2 (PTPN2) (AID 2283207)", "outline": "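Cell-free recombinant enzyme with fluorescent substrate, product separated by electrophoretic mobility shift; read 1 h after dosing. Primary screen single concentration (25 uM) in duplicate; actives followed in concentration series; loss of signal versus DMSO.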"}, "[16]": {"test_system": "bovine Histamine 1 Receptor (H1), gene 281231", "assay": "NVS_GPCR_bH1: NovaScreen (NVS) G Protein-Coupled Receptor Assay for bovine Histamine 1 Receptor (H1) (AID 2283246)", "outline": "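Radioligand displacement on bovine cerebellar membranes, 1 h after dosing, filter-based scintillation read-out; loss of signal vs DMSO. Duplicate single-concentration screen at 25 uM, then concentration-response up to 50 uM for hits.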"}, "[17]": {"target": "human Vascular Endothelial Growth Factor Receptor 2 (VEGFR2), KDR (gene 3791) (UniProt P35968)", "assay": "NVS_ENZ_hVEGFR2: NovaScreen (NVS) Enzymatic Assay for human Vascular Endothelial Growth Factor Receptor 2 (VEGFR2) (AID 2283230)", "outline": "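Cell-free recombinant VEGFR2 kinase, fluorescent substrate with electrophoretic mobility-shift separation; read 1 h after dosing. Screened at 25 uM in duplicate, hits to concentration-response up to 50 uM; loss-of-signal versus DMSO.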"}, "[18]": {"target": "Estrogen receptor (Homo sapiens) (UniProt P03372)", "assay": "CCTE_Deisenroth_AIME_384WELL_LUC_Active: CCTE's 384-well Estrogen Receptor Transactivation Assay with AIME metabolic competence (ERTA luciferase; metabolism positive), Deisenroth Lab (AID 2284030)", "outline": "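Estrogenic luciferase signal in VM7Luc4E2 cells is measured at 24 hour, after chemicals have been preconditioned 2 hours with PB/BNF-induced rat hepatic S9 in alginate. Gain of signal is fitted relative to 17beta-estradiol, across 0.002 - 200 uM.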"}, "[19]": {"target": "rat Corticotropin Releasing Factor Receptor (CRF), Crhr1 (gene 58959) (UniProt P35353)", "assay": "NVS_GPCR_rCRF: NovaScreen (NVS) G Protein-Coupled Receptor Assay for rat Corticotropin Releasing Factor Receptor (CRF) (AID 2283300)", "outline": "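Rat cortical membranes used as receptor source in a radioligand competitive displacement binding assay; scintillation read 2 h after dosing. Primary screen run in duplicate at 25 uM; loss of signal versus DMSO baseline indicates binding.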"}},
  "note": "The inconclusive results got no clear call from the source; some entries with a clear call stand among them for comparison. For some assays here: A potency beside an inconclusive call is a rough fit, not a confirmed value. Active and inactive are the calls of the source. Rule for the calls: active = hit-call score of the fitted dose curve at least 0.9, where 1 is the maximum; inconclusive = response in the unintended direction; inactive = score below 0.9.",
  "data": [
    {"smiles": "Cc1ccc(N)cc1Cl", "values": [
      {"measurement": "outcome", "setting": "[1]", "result": "inactive"}
    ]},
    {"smiles": "ClC(Cl)(Cl)c1ccccc1", "values": [
      {"measurement": "AC50", "setting": "[2]", "result": "inconclusive: 10 µM"}
    ]},
    {"smiles": "CC(=O)/C=C/c1ccccc1", "values": [
      {"measurement": "AC50", "setting": "[3]", "result": "inconclusive: 100 µM"}
    ]},
    {"smiles": "C=CC(Cl)CCl", "note": "(stereo not given)", "values": [
      {"measurement": "outcome", "setting": "[4]", "result": "inactive"},
      {"measurement": "outcome", "setting": "AR (gene 367)", "result": "inactive"}
    ]},
    {"smiles": "COC(=O)c1ccccc1N", "values": [
      {"measurement": "outcome", "setting": "[5]", "result": "inactive"},
      {"measurement": "AC50", "setting": "[6]", "result": "inconclusive: 40.9 µM"}
    ]},
    {"smiles": "Oc1ccc(I)cc1", "values": [
      {"measurement": "AC50", "setting": "[7]", "result": "inconclusive: 6.75 µM"}
    ]},
    {"smiles": "CC(C)[C@H](C(=O)O[C@H](C#N)c1cccc(Oc2ccccc2)c1)c1ccc(Cl)cc1", "values": [
      {"measurement": "AC50", "setting": "[8]", "result": "inconclusive: 25 µM"},
      {"measurement": "AC50", "setting": "[9]", "result": "inconclusive: 25 µM"},
      {"measurement": "outcome", "setting": "[10]", "result": "inactive"},
      {"measurement": "AC50", "setting": "[11]", "result": "active: 14.6 µM"}
    ]},
    {"smiles": "CCCN(CC)CC1COC2(CCC(C(C)(C)C)CC2)O1", "note": "(stereo not given)", "values": [
      {"measurement": "AC50", "setting": "[12]", "result": "active: 3.99 µM"}
    ]},
    {"smiles": "CC(C)(C)c1ccccc1O", "values": [
      {"measurement": "AC50", "setting": "[13]", "result": "inconclusive: 545 nM"},
      {"measurement": "AC50", "setting": "[14]", "result": "inconclusive: 1.33 nM"}
    ]},
    {"smiles": "c1ccc2c(c1)oc1ccccc12", "values": [
      {"measurement": "outcome", "setting": "[15]", "result": "inactive"}
    ]},
    {"smiles": "CN(C)C(=O)Nc1cccc(C(F)(F)F)c1", "values": [
      {"measurement": "outcome", "setting": "[16]", "result": "inactive"}
    ]},
    {"smiles": "CCCN(CCC)c1c([N+](=O)[O-])cc(C(C)C)cc1[N+](=O)[O-]", "values": [
      {"measurement": "outcome", "setting": "[17]", "result": "inactive"},
      {"measurement": "AC50", "setting": "[18]", "result": "active: 13.3 µM"}
    ]},
    {"smiles": "CCCCCCOC(=O)c1ccccc1C(=O)OCCCCCC", "values": [
      {"measurement": "AC50", "setting": "[19]", "result": "inconclusive: 25 µM"}
    ]}
  ]
}
